Data reported in patent US7417023B2, “Targeted delivery of bioaffecting compounds for the treatment of cancer” (Faulk Pharmaceuticals, Inc., priority 2001, dated 2008).
For at least one compound, name, drawing or mass did not settle the structure.

What was measured:
transferrin receptors = assay: regulation of transferrin receptors on drug-sensitive and drug-resistant cancer cells; assay type: cell-based
[1] = system: drug-resistant cancer cells; assay: viability of drug-resistant cancer cells; assay type: cell-based; conditions: higher concentrations
Description: In order to test the relationship between calcium and transferrin receptors, the effect of calcium channel inhibitors on the regulation of transferrin receptors was studied in drug-sensitive and drug-resistant cancer cells. […]. […] The addition of both iron and calcium channel blockers had no effect on cell viability.
In light of the above findings, another series of experiments were done to determine whether the restriction of iron by deferoxamine had differential effects on drug-sensitive and drug-resistant cancer cells.

[2] = system: human myeloid leukemia cells; conditions: cited from earlier work

CC(=O)N(O)CCCCCNC(=O)CCC(=O)N(O)CCCCCNC(=O)CCC(=O)N(O)CCCCCN [deferoxamine]
transferrin receptor expression (transferrin receptors; increasing concentrations, drug-resistant cells): decreased | regulation of transferrin receptors (transferrin receptors; low concentrations, both drug-sensitive and drug-resistant cells): up-regulated transferrin receptors | cell killing in viability experiments [1]: killed drug-resistant but not drug-sensitive cells | arabinoside-mediated apoptosis [2]: increase
